Data as given in article PMC7819943, “Rice protein-binding microarrays: a tool to detect cis-acting elements near promoter regions in rice”.
This is one part of the list.

Chains of the proteins cited; added tags and fusions are not shown.
UniProt Q0JBA9, entry or part of it: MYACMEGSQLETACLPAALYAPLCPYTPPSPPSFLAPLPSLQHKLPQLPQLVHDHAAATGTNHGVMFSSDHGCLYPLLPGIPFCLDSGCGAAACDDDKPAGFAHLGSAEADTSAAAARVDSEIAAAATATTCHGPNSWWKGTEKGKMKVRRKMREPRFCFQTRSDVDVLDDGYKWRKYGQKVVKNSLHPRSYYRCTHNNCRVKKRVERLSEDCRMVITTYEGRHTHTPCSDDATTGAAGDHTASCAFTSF

biological target: OsWRKY34 (Oryza sativa, UniProt Q0JBA9 1-250); assay: protein-binding microarray (RPBM); PBS, 2% BSA, 51.3 ng/ul salmon testes DNA, 50 uM zinc acetate, 200 nM TF, 25 C, 1 h; high values mean tight binding; details: protein: recombinant; tags: N-terminal polyhistidine and DsRed monomer fusion (pET32a); label: CyDye5-dUTP incorporated in the synthesized complementary strand; 3' TTTTT single-stranded linker to array surface; dsDNA, one strand shown
Method in brief: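 Binding signal is defined as the fluorescence intensity of each feature in arbitrary units, read on an Axon 4000B scanner. Transcription factors with N-terminal polyhistidine and DsRed fusions came from E. coli BL21-CodonPlus and were purified on Ni–NTA. They were incubated at 200 nM for 1 h at 25 °C on a custom Agilent array that had been made double-stranded with Cy5-dUTP, with 50 µM zinc acetate present, and the array was washed.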

Sequence	binding signal
CTGTGCCAGCAGCATTTGCTCTTCTCTCGAACTGGCTTACCGGAGTCACCTAGTGCAG	8530 fluorescence intensity (a.u.)
CCTTGGATTCTCATCAAATATTTAATTTATCTCTTCATTTCGGAGTCACCTAGTGCAG	9590 fluorescence intensity (a.u.)
GGGTGTGTAAGGGTAGGTGGAGGGGTGGGTGATGCGAGATCGGAGTCACCTAGTGCAG	20400 fluorescence intensity (a.u.)
ACTTTTGCTAGACCAAACAACACTTTTGGTCAATATACACCGGAGTCACCTAGTGCAG	8740 fluorescence intensity (a.u.)
ACAGCGCCTGATGTCCAAGTGCCTTTTCGCTGCCGTCGCTCGGAGTCACCTAGTGCAG	9030 fluorescence intensity (a.u.)
ATGCACCAAATCAGTTTCTTGTACAACCGTTCGGTCTATTCGGAGTCACCTAGTGCAG	9730 fluorescence intensity (a.u.)
CCGGGGAAATCCTCTGGGGATTTGTGGGTGGTTTTGGGCTCGGAGTCACCTAGTGCAG	9980 fluorescence intensity (a.u.)
GGTGATTCTATTACTTCTAGGTGACGTATATTTGTCAATGCGGAGTCACCTAGTGCAG	9280 fluorescence intensity (a.u.)
TTCTATCAAAATCCTACGTTTTTCCTATTTCTATATTTTCCGGAGTCACCTAGTGCAG	8560 fluorescence intensity (a.u.)
CATTCCGCTTTACTGCTCTCGCTTAGCTTTTGCTGAGAATCGGAGTCACCTAGTGCAG	8450 fluorescence intensity (a.u.)
AGTACTTTTTTATCAACCATGCCAATTTTTTCTCCTCACACGGAGTCACCTAGTGCAG	9520 fluorescence intensity (a.u.)
TTCTCAAGTTTTCTATGTAGAAATTTTTTAGCTATATGTACGGAGTCACCTAGTGCAG	8060 fluorescence intensity (a.u.)
AATCTTCTCTTACATGACTTTTTGGTTACATTACGGACACCGGAGTCACCTAGTGCAG	9940 fluorescence intensity (a.u.)
CGCCATGGGAGCTTCCTCTCCTCGACCTCGCGCCGGCCAACGGAGTCACCTAGTGCAG	8340 fluorescence intensity (a.u.)
ACTAAGTGTCTGTCCTGTTTTGAAGAGAAAAAACTTTTTTCGGAGTCACCTAGTGCAG	8970 fluorescence intensity (a.u.)
CGCGCCCGGCGCCTCTCTCCTCCTATTCGCCGTGCTAATCCGGAGTCACCTAGTGCAG	9430 fluorescence intensity (a.u.)
TCGGGTTTGAGAGGGTGGTATCCGATGGATACGGATTATCCGGAGTCACCTAGTGCAG	9620 fluorescence intensity (a.u.)
TTCTTCCAACTGTCTTCTCTCATTCTCCGCGCGGACGCTTCGGAGTCACCTAGTGCAG	9780 fluorescence intensity (a.u.)
TACGTGTTGAGTATAGGTAGGATGGTAGAAGTTATTTTTTCGGAGTCACCTAGTGCAG	8110 fluorescence intensity (a.u.)
TGGATTTGTATTGTATTTGGTCTCTGCCGTGTTGCTGCTTCGGAGTCACCTAGTGCAG	9340 fluorescence intensity (a.u.)
ATTTTTTTAATTCCGAATTTCTTTTTTTTCTTAATTGTATCGGAGTCACCTAGTGCAG	10100 fluorescence intensity (a.u.)

Sequence	binding signal
TTTCTTCTTCGTCTCCGTCGCCTAGTCGGCTTCGCCTCCGCGGAGTCACCTAGTGCAG	9520 fluorescence intensity (a.u.)
AAACCACATCATATCATGCGTAGTTATTACTATATTATATCGGAGTCACCTAGTGCAG	8760 fluorescence intensity (a.u.)
ATGAACACCACGTCGTCCGTCTCCACTCCGCCTGCGTACACGGAGTCACCTAGTGCAG	10600 fluorescence intensity (a.u.)
GCCCAATTATTACTCCTCCACTACTACTCCTCCACCCGCGCGGAGTCACCTAGTGCAG	9220 fluorescence intensity (a.u.)
TACAAATAAAACAAAATATGTTTAAAAAAGTCAACGGCATCGGAGTCACCTAGTGCAG	10600 fluorescence intensity (a.u.)
ATCTGTAGCCCGCTGCTCTTCTCTCTCTTCCTTTATCTCTCGGAGTCACCTAGTGCAG	10600 fluorescence intensity (a.u.)
AACTTGAATACGTTGAATTTAAATATGTACGTACGTTTGTCGGAGTCACCTAGTGCAG	8640 fluorescence intensity (a.u.)
CTTCAAGCTACCTTGCTTCTCCAGATCACTCTCTTTCAGCCGGAGTCACCTAGTGCAG	8780 fluorescence intensity (a.u.)
ATGTCATGTCATGGTCGTCTCTTCTCTTGGAGGATTATTACGGAGTCACCTAGTGCAG	8060 fluorescence intensity (a.u.)
CTTAACGGCCCATTTATCTTGTCTCTCTGGCCCACCTGCACGGAGTCACCTAGTGCAG	12300 fluorescence intensity (a.u.)
GACTATGCGCGCTATATAAAGGATCACATTATCTCATACTCGGAGTCACCTAGTGCAG	8930 fluorescence intensity (a.u.)
CTTGATAATTACTCTTACGTCCCTCACCCTATGTTCCTGTCGGAGTCACCTAGTGCAG	8960 fluorescence intensity (a.u.)
AATGGCTCACTACCTCGTTTTAAGTTTTTTCCCAATTTTCCGGAGTCACCTAGTGCAG	9970 fluorescence intensity (a.u.)
GAAATGTTTGTTGATCATTCGTCTTATTTAAATTTTTTTGCGGAGTCACCTAGTGCAG	8650 fluorescence intensity (a.u.)
CTCACGCTCGCAACAACACAAAACCCTAGACTTGCACAGACGGAGTCACCTAGTGCAG	8160 fluorescence intensity (a.u.)
TTTTAACATTTTTCTTGCACTGTTTGACCATTCGTCTTATCGGAGTCACCTAGTGCAG	10400 fluorescence intensity (a.u.)
CTTTCTTTTTCCTTCTCTCTCTCTTTTCTTTCTTTTCTTTCGGAGTCACCTAGTGCAG	13600 fluorescence intensity (a.u.)
ATCCTGCGACCGCGGCTCAATCCCAATCCCATGCCGATCCCGGAGTCACCTAGTGCAG	9310 fluorescence intensity (a.u.)
GAACAAAAATCCATTGACCACTTCCTCTCTCTCTTCGTCACGGAGTCACCTAGTGCAG	10600 fluorescence intensity (a.u.)
CGGTATTATTTTATTTTTTACTATGATGTTCTATTCAATTCGGAGTCACCTAGTGCAG	8660 fluorescence intensity (a.u.)
TCGCAAGAGTTGTTGAAAGTTGACCAGCATATTGAGGCCCCGGAGTCACCTAGTGCAG	8130 fluorescence intensity (a.u.)

Random excerpt: two entries already listed, in no set order.
Sequence	binding signal
CTCACGCTCGCAACAACACAAAACCCTAGACTTGCACAGACGGAGTCACCTAGTGCAG	8160 fluorescence intensity (a.u.)
CTTGATAATTACTCTTACGTCCCTCACCCTATGTTCCTGTCGGAGTCACCTAGTGCAG	8960 fluorescence intensity (a.u.)

The list goes on:

Sequence	binding signal
ACTTCTCGTGCCAATGTGCGCGCACGGCTTTTTTTTTTTTCGGAGTCACCTAGTGCAG	13600 fluorescence intensity (a.u.)
GGATTTAGGCTGCTTCACAACTACATTCTAGACCCGACTCCGGAGTCACCTAGTGCAG	8080 fluorescence intensity (a.u.)
CCAATTTGTAGCCACTCTCAACTCTACCTTACTAAAATTTCGGAGTCACCTAGTGCAG	8170 fluorescence intensity (a.u.)
CGGCCTGCCTGCTCTGCCCGCCACCACGCTGCCAGCTTCGCGGAGTCACCTAGTGCAG	8300 fluorescence intensity (a.u.)
GCTTTGGGGCTAATTTGATTTCAAGACAATTTGGTATTAGCGGAGTCACCTAGTGCAG	8440 fluorescence intensity (a.u.)
GGGGCAAAAATCACCTAATCTAAACCCTTCTCACAAAACTCGGAGTCACCTAGTGCAG	8310 fluorescence intensity (a.u.)
ACGGCATCGGCTCCTGCATCGTCTCCACGCCTACTCCATCCGGAGTCACCTAGTGCAG	13700 fluorescence intensity (a.u.)
AATCAAACGACCATTCCTATGTTTTGCAATCCTCTGTTTTCGGAGTCACCTAGTGCAG	11900 fluorescence intensity (a.u.)
CGCCCGTGTCTTGTGTGTTTCCATTCTCGCGAACCTTCCACGGAGTCACCTAGTGCAG	16100 fluorescence intensity (a.u.)
GACAAAAGCAACCCCACTCCTCCTACCTGTCCCCGCACAACGGAGTCACCTAGTGCAG	8090 fluorescence intensity (a.u.)
AGGATATGTCACCCAGTACTAGTTGGTTTTTTATGGGACGCGGAGTCACCTAGTGCAG	9190 fluorescence intensity (a.u.)
ATCGTCCGTCACCACGTGCAACCCTATCGCCGCTGCCGGCCGGAGTCACCTAGTGCAG	10500 fluorescence intensity (a.u.)
TATCACGCGCTCCACCCTATTCCGTCGCTGTTTCTGTTTGCGGAGTCACCTAGTGCAG	8360 fluorescence intensity (a.u.)
TTTGCCCTTGACCACCGCCGCCGCCTCCGCCTCCGCCGATCGGAGTCACCTAGTGCAG	10700 fluorescence intensity (a.u.)
CAATCTCGGCGGATCACTCTCATACCCCATCGGTCCATCCCGGAGTCACCTAGTGCAG	8740 fluorescence intensity (a.u.)
CGCTGGCACAATTGCACGCTTGCACCTCTCAGTTCGTTTCCGGAGTCACCTAGTGCAG	9480 fluorescence intensity (a.u.)
ATCCACTTATATATACACACATTTGTAATTTGTATCTATACGGAGTCACCTAGTGCAG	8270 fluorescence intensity (a.u.)
CGCCGCTGCCTTCACGCGCCCAGCCGGCAGCCACCCAGGCCGGAGTCACCTAGTGCAG	8180 fluorescence intensity (a.u.)
GCTAGTTCTTGCATGAGAGCCAACATCCTTGATATTTTGTCGGAGTCACCTAGTGCAG	8570 fluorescence intensity (a.u.)
GCGGAGGCAGGGAGGGTTTTGGAATTTTCGGCCGCCGTTGCGGAGTCACCTAGTGCAG	10100 fluorescence intensity (a.u.)
TGTAGTAAGTTTTCTGTTGTGCACAAGCGTTCAAGCGTCGCGGAGTCACCTAGTGCAG	8090 fluorescence intensity (a.u.)

Sequence	binding signal
ACCTGACGCCTCGCCCGGGCTTCTACGTCGCCTGCATTCCCGGAGTCACCTAGTGCAG	11000 fluorescence intensity (a.u.)
TCCTTCCGCGCTCGCCGCCCCTTTCGTGCTCGCCACCACACGGAGTCACCTAGTGCAG	10400 fluorescence intensity (a.u.)
TGGCGACAGTCGGGAGGGTGGGAGCTATAGGGGCTATCGCCGGAGTCACCTAGTGCAG	9770 fluorescence intensity (a.u.)
TCGTTATACTTCCCTTTATTTCTCATCTTTTCTAATCCAACGGAGTCACCTAGTGCAG	8320 fluorescence intensity (a.u.)
GGTGCTGTCTATGTCTACTCTTTTCCGCAGCAATACCTATCGGAGTCACCTAGTGCAG	9300 fluorescence intensity (a.u.)
TGTGGTGGGTGATAGGGAATGGGAGGTTTACAGGGTGCACCGGAGTCACCTAGTGCAG	8280 fluorescence intensity (a.u.)
CTGCCGGCCTCCTTGCAGCAACCCTTCTTCTTCTTCTTCTCGGAGTCACCTAGTGCAG	9510 fluorescence intensity (a.u.)
CCTTATATCTTGTTTAGATACCTTATTTGTCACCTTTTGACGGAGTCACCTAGTGCAG	9620 fluorescence intensity (a.u.)
GTCGTCTCATACCAATCGTGCGGCGGCGGCGGCGGGGATGCGGAGTCACCTAGTGCAG	10400 fluorescence intensity (a.u.)
ATTTTGTACTATAAGTTCATATACAGTCCTTCCATTTGTCCGGAGTCACCTAGTGCAG	8120 fluorescence intensity (a.u.)
CTCTAGGAAAGCTCTGTTTCTTGTGTTCTGTTACTCTTATCGGAGTCACCTAGTGCAG	9740 fluorescence intensity (a.u.)
ATCTAAACGCCACGAAGTACGAAAACCAAGTCAACGCTGCCGGAGTCACCTAGTGCAG	9860 fluorescence intensity (a.u.)
GTGCAGTTTATACATTAACATGTTAATCCCACTTTACTACCGGAGTCACCTAGTGCAG	10300 fluorescence intensity (a.u.)
CGCGGCCGGCTCTCCCTATACAAGCGCCACGTCGCCGGCGCGGAGTCACCTAGTGCAG	8460 fluorescence intensity (a.u.)
GATCGAATTCCTTCACCGCCACACCCCACCAAGAAAAGTCCGGAGTCACCTAGTGCAG	8640 fluorescence intensity (a.u.)
GCAAAGGGCCGATGAATTATGGACCCGGGGTGGGGTGGGGCGGAGTCACCTAGTGCAG	16100 fluorescence intensity (a.u.)
CGGCACAACACAACCGCCCATAGCTGTACCGCCGCGCGCGCGGAGTCACCTAGTGCAG	10400 fluorescence intensity (a.u.)
CGTGTTGACCTCGTATTCGTATGCTTGGAGGGCGCTCCACCGGAGTCACCTAGTGCAG	9090 fluorescence intensity (a.u.)
CTCTCCCTCACGCTCTCCCAGTCCCAGCGCCGCCGTTTCCCGGAGTCACCTAGTGCAG	8930 fluorescence intensity (a.u.)
CATTTTCTACTCGTGCCATATGCTCTAGATCCCACATAACCGGAGTCACCTAGTGCAG	10100 fluorescence intensity (a.u.)
TTGGTTTGATCCATGGTTTTGTTATGTTCAGTCCACCTTGCGGAGTCACCTAGTGCAG	8040 fluorescence intensity (a.u.)

Already shown: an excerpt of the list.
Sequence	binding signal
TGTGGTGGGTGATAGGGAATGGGAGGTTTACAGGGTGCACCGGAGTCACCTAGTGCAG	8280 fluorescence intensity (a.u.)
CTGCCGGCCTCCTTGCAGCAACCCTTCTTCTTCTTCTTCTCGGAGTCACCTAGTGCAG	9510 fluorescence intensity (a.u.)
CCTTATATCTTGTTTAGATACCTTATTTGTCACCTTTTGACGGAGTCACCTAGTGCAG	9620 fluorescence intensity (a.u.)
GTCGTCTCATACCAATCGTGCGGCGGCGGCGGCGGGGATGCGGAGTCACCTAGTGCAG	10400 fluorescence intensity (a.u.)
ATTTTGTACTATAAGTTCATATACAGTCCTTCCATTTGTCCGGAGTCACCTAGTGCAG	8120 fluorescence intensity (a.u.)
